Data as given in PubChem BioAssay AID1159579 (Peter MacCallum Cancer Centre, 2015).
Screen: 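Find genes whose silencing alters migration of lymphatic endothelial cells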 (follow-up of hits). System: human dermal lymphatic endothelial cells. Knock-down reagent: single siRNA against human genes, 25 nM. Read-out: 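High content images of wound closure area and cell nuclei counts, each the average of two wells, expressed against mock transfection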. Reading the numbers: migration relative to mock: higher = more migration into the scratch; mean nuclei count: higher = more cells remaining. Call rule: 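a ratio of at most 0.6 or at least 1.3 marks altered migration and an active call; a mean nuclei count under 3300 forces an inactive call regardless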. Meaning of the calls: active = migration changed (impaired or accelerated); inactive = no migration change, or too few cells.
This is one part, drawn at random, of about 2,000 deposited reagents. 549 of all reagents (27%) were called active. 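Some migration ratios are negative; siRNAs with too few cells are inactive whatever their migration ratio.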 Reagents against one gene are numbered here. Not stated in the record: the time to read-out.

target | reagent no. | migration relative to mock | migration and cell number class | mean nuclei count | Call
PRKD3 | 1 | 0.49 | migration reduced | 6088 | active
PRKD3 | 2 | 0.69 | no change in migration or cell number | 6365 | inactive
PRKD3 | 3 | 0.68 | no change in migration or cell number | 5294 | inactive
PRKD3 | 4 | 0.49 | migration reduced | 4652 | active
DOK4 | 1 | 0.88 | no change in migration or cell number | 5730 | inactive
DOK4 | 2 | 0.9 | no change in migration or cell number | 6088 | inactive
DOK4 | 3 | 1 | no change in migration or cell number | 5888 | inactive
DOK4 | 4 | 0.78 | no change in migration or cell number | 4374 | inactive
HIGD1B | 1 | 0.62 | no change in migration or cell number | 4387 | inactive
HIGD1B | 2 | 0.9 | no change in migration or cell number | 7478 | inactive
HIGD1B | 3 | 0.99 | no change in migration or cell number | 4910 | inactive
HIGD1B | 4 | 0.6 | migration reduced | 4668 | active
TMEM125 | 1 | 0.66 | no change in migration or cell number | 4824 | inactive
TMEM125 | 2 | 0.68 | no change in migration or cell number | 4656 | inactive
TMEM125 | 3 | 0.43 | migration reduced | 7010 | active
TMEM125 | 4 | 0.46 | too few cells; migration not scored | 3261 | inactive
LYVE1 | 1 | 1.18 | no change in migration or cell number | 6862 | inactive
LYVE1 | 2 | 0.72 | no change in migration or cell number | 6959 | inactive
LYVE1 | 3 | 0.25 | migration reduced | 3936 | active
LYVE1 | 4 | 0.82 | no change in migration or cell number | 5612 | inactive
TBC1D24 | 1 | 0.12 | too few cells; migration not scored | 2380 | inactive
TBC1D24 | 2 | 1.07 | no change in migration or cell number | 5795 | inactive
TBC1D24 | 3 | 0.38 | migration reduced | 4104 | active
TBC1D24 | 4 | 1.08 | no change in migration or cell number | 5592 | inactive

Next part, starting with the last 3 of the part before.
target | reagent no. | migration relative to mock | migration and cell number class | mean nuclei count | Call
TBC1D24 | 2 | 1.07 | no change in migration or cell number | 5795 | inactive
TBC1D24 | 3 | 0.38 | migration reduced | 4104 | active
TBC1D24 | 4 | 1.08 | no change in migration or cell number | 5592 | inactive
SNRPD1 | 1 | 1.01 | no change in migration or cell number | 5732 | inactive
SNRPD1 | 2 | 0.63 | no change in migration or cell number | 5016 | inactive
SNRPD1 | 3 | 0.68 | no change in migration or cell number | 5452 | inactive
SNRPD1 | 4 | 0.66 | no change in migration or cell number | 4432 | inactive
STK33 | 1 | 0.53 | migration reduced | 5282 | active
STK33 | 2 | 0.76 | no change in migration or cell number | 5792 | inactive
STK33 | 3 | 0.81 | no change in migration or cell number | 6291 | inactive
STK33 | 4 | 0.74 | no change in migration or cell number | 4728 | inactive
SPDYA | 1 | 0.94 | no change in migration or cell number | 5139 | inactive
SPDYA | 2 | 0.82 | no change in migration or cell number | 5540 | inactive
SPDYA | 3 | 0.14 | migration reduced | 4250 | active
SPDYA | 4 | 0.4 | too few cells; migration not scored | 2877 | inactive
DHX16 | 1 | 0.64 | no change in migration or cell number | 5483 | inactive
DHX16 | 2 | 0.9 | no change in migration or cell number | 5590 | inactive
DHX16 | 3 | 0.67 | no change in migration or cell number | 5684 | inactive
DHX16 | 4 | 0.72 | no change in migration or cell number | 6068 | inactive
BDH2 | 1 | -0.59 | migration reduced | 3490 | active
BDH2 | 2 | 0.78 | no change in migration or cell number | 5523 | inactive
BDH2 | 3 | 0.66 | no change in migration or cell number | 5268 | inactive
BDH2 | 4 | 0.34 | migration reduced | 3318 | active
PCDHGA6 | 1 | 0.66 | no change in migration or cell number | 6822 | inactive
PCDHGA6 | 2 | 0.99 | no change in migration or cell number | 6963 | inactive
PCDHGA6 | 3 | 0.8 | no change in migration or cell number | 6057 | inactive
PCDHGA6 | 4 | 0.55 | migration reduced | 5189 | active
